{"source": "PubChem BioAssay AID540276", "about": "(National Center for Advancing Translational Sciences (NCATS), 2011)", "note": "In all, about 300,000 compounds went through this assay and about 5,400 (1.8%) were called active. The shares of active, inactive and inconclusive entries below differ from those in the screen. The call rests on the fitted dose curve; tested in HEK293 cells. A potency beside an inconclusive call is a rough fit, not a confirmed value. On the % scale 0 is the no-effect control and ±100 the full control effect; potency means the concentration at half of the fitted maximal effect."}
{"assay": "qHTS for inhibitors of binding or entry into cells for Marburg Virus", "conditions": "Marburg virus pseudotyped entry inhibition, cell reporter; activity change, negative = inhibition: at 37.8 µM (top of the series) unless noted"}
{"compound": "CC(=O)/C(=N/Nc1ccc(Br)cc1)Sc1cccc2cccnc12", "Potency": "inconclusive: 8.91 µM [inhibitor, partial curve, poor fit]"}
{"compound": "Cc1cccc(Cc2nnc(CCC(=O)N(CC3CC3)CC3CCCO3)o2)c1", "note": "(centres undefined)", "Potency": "inconclusive: 31.6 µM [activator, single point]"}
{"compound": "COc1ccc(Br)cc1CNCCc1ccc2c(c1)OCO2", "Potency": "inconclusive: 17.8 µM [inhibitor, single point]"}
{"compound": "COc1ccc(CCNC(=O)C(=O)NCc2ccccc2C)cc1OC", "Potency": "inconclusive: 3.16 µM [inhibitor, single point]"}
{"compound": "O=CNc1ccc(S(=O)(=O)NCc2ccccc2)cc1", "Potency": "inconclusive: 0.259 µM [activator, single point]"}
{"compound": "O=C(Nc1cccc(-c2nc3ccccc3o2)c1)c1ccc(-c2ccc(Br)cc2)o1", "activity change, negative = inhibition": "inactive: -16.1% [at 46.1 µM]"}
{"compound": "CC(=O)Nc1ccc(S(=O)(=O)NCC(=O)Nc2ccc3c(c2)OCO3)cc1", "Potency": "inconclusive: 1.26 µM [inhibitor, single point]"}
{"compound": "Cc1ccc(S(=O)(=O)N2CCC(=O)N(C(COCc3cccc(C)c3)C(C)C)CC2)cc1", "note": "(centres undefined)", "activity change, negative = inhibition": "inactive: -20%"}
{"compound": "N#CCCCS(=O)(=O)c1nnnn1-c1ccccc1", "Potency": "inconclusive: 1.19 µM [inhibitor, single point]"}
{"compound": "CNc1c(NS(=O)(=O)c2ccc(Br)cc2)c(=O)oc2ccccc12", "activity change, negative = inhibition": "inactive: 0.541% [at 46.1 µM]"}
{"compound": "CC(=O)c1oc2ccccc2c1N", "activity change, negative = inhibition": "inactive: 7.61%"}
{"compound": "CC(C)CCn1c(=O)c2ccccc2n2c(CN3CCCC3)nnc12", "activity change, negative = inhibition": "inactive: 16.5% [at 46.1 µM]"}
{"compound": "CCn1ncc(/C=N\\NC(=O)COc2cc(C)cc(C)c2)c1C", "Potency": "inconclusive: 0.891 µM [inhibitor, full curve, poor fit]"}
{"compound": "CCCCC1NC(=S)N(C2CCCCC2)C1=O", "note": "(centres undefined)", "activity change, negative = inhibition": "inactive: -1.56%"}
{"compound": "C#CC1(O)CCC2C3CCc4cc(O)cc(C)c4C3CCC21C", "note": "(centres undefined)", "Potency": "inconclusive: 35.5 µM [activator, single point]"}
{"compound": "COc1ccc(CCNC(=O)CSc2nc(C)nc3c2oc2ccccc23)cc1OC", "Potency": "inconclusive: 22.4 µM [activator, single point]"}
{"compound": "Cc1ccccc1OCc1nc2ccccc2c(=O)n1/N=C/c1cccc([N+](=O)[O-])c1", "activity change, negative = inhibition": "inactive: -1.42%"}
{"compound": "Cc1c(-c2cccc(Cl)c2)nc2ccccc2c1C(=O)OCC(=O)Nc1ccc2c(c1)OCO2", "Potency": "inconclusive: 35.5 µM [inhibitor, single point]"}
{"compound": "S=C(NCCN1CCOCC1)Nc1cccc(Cl)c1", "Potency": "inconclusive: 31.6 µM [activator, single point]"}
{"compound": "COc1ccc(Cl)cc1NC(=O)COC(=O)CCNS(=O)(=O)c1cccs1", "Potency": "inconclusive: 0.562 µM [inhibitor, single point]"}
{"compound": "CCCCNS(=O)(=O)c1ccc(NC(=O)c2cccs2)cc1", "Potency": "inconclusive: 35.5 µM [inhibitor, single point]"}
{"compound": "NC(=O)c1ccc(N2CCN(c3ccc(O)cc3)CC2)c([N+](=O)[O-])c1", "Potency": "inconclusive: 10 µM [inhibitor, single point]"}
{"compound": "CSc1ccc(CN(C)C(=O)CSCC(=O)Nc2cc(C)on2)cc1", "Potency": "inconclusive: 35.5 µM [inhibitor, single point]"}
{"compound": "O=S1(=O)c2cccc3cccc(c23)N1CCBr", "Potency": "inconclusive: 22.4 µM [inhibitor, single point]"}
{"compound": "O=C(O)CSc1nnc(COc2cccc3cccnc23)n1-c1ccc(Cl)cc1", "Potency": "inconclusive: 1 µM [activator, partial curve, poor fit]"}
{"compound": "O=C(CN(C(=O)c1csnn1)c1cccc(Cl)c1)NCCc1ccccc1", "activity change, negative = inhibition": "inactive: -27.9% [at 46.1 µM]"}
{"compound": "O=C1c2ccccc2C(=O)c2c1cccc2N1CCOCC1", "activity change, negative = inhibition": "inactive: 8.73%"}
{"compound": "FC(F)(F)c1cccc(NC(=S)NCc2ccc(Cl)cc2)c1", "Potency": "inconclusive: 35.5 µM [inhibitor, single point]"}
{"compound": "O=C(O)CCC(=O)Nc1nnc(C(F)(F)F)s1", "activity change, negative = inhibition": "inactive: 8.36% [at 46.1 µM]"}
{"compound": "CS(=O)(=O)c1cnc(-c2ccccc2)nc1-c1ccccc1Cl", "Potency": "inconclusive: 2.24 µM [inhibitor, partial curve, poor fit]"}
{"compound": "COc1ccc(C(C)NC(=S)NCc2ccc(F)cc2)cc1OC", "note": "(centres undefined)", "activity change, negative = inhibition": "inactive: 0.81%"}
{"compound": "CCOC(=O)c1c(NC(=O)OC)sc(C(=O)N(C)C)c1C", "activity change, negative = inhibition": "inactive: -19.4%"}
{"compound": "Cc1cc(NC(=O)CCC(=O)N(c2ccccc2)C(C(=O)NC2CCCCC2)c2cccs2)no1", "note": "(centres undefined)", "Potency": "inconclusive: 7.94 µM [inhibitor, partial curve]"}
{"compound": "COc1ccccc1/C=C1\\CCCC2=C1Nc1nnnn1C2c1ccccc1OC", "note": "(centres undefined)", "Potency": "inconclusive: 6.31 µM [inhibitor, partial curve]"}
{"compound": "Cc1ccccc1NC(=O)C1CCN(c2cc(-c3ccccc3)nc3ncnn23)CC1", "Potency": "inconclusive: 15.8 µM [inhibitor, partial curve, poor fit]"}
{"compound": "COc1ccccc1NS(=O)(=O)c1cc(NC(=O)CCC(=O)c2cccs2)ccc1Cl", "Potency": "inconclusive: 16.4 µM [inhibitor, partial curve, poor fit]"}
{"compound": "COc1ccc(C(=O)N/N=C/c2sc3ccccc3c2O)cc1", "Potency": "inconclusive: 23.1 µM [inhibitor, single point]"}
{"compound": "S=C(N/N=C/c1ccc(Cl)c(Cl)c1)Nc1ccccc1Cl", "Potency": "inconclusive: 22.4 µM [inhibitor, single point]"}
{"compound": "Cc1cc(C)c(C#N)c(SCCS(=O)(=O)Cc2ccccc2)n1", "activity change, negative = inhibition": "inactive: -12.9%"}
{"compound": "N=c1n(CCN2CCOCC2)c2ccccc2n1CC(O)COc1ccccc1", "note": "(centres undefined)", "Potency": "inconclusive: 35.5 µM [inhibitor, single point]"}
{"compound": "Cc1ccc2c(C)c(C(=O)NCc3ccc(S(N)(=O)=O)cc3)oc2c1", "Potency": "inconclusive: 5.62 µM [inhibitor, single point]"}
{"compound": "CC[C@@]1(C)Cc2c(C#N)c(N)sc(=S)c2CO1", "Potency": "inconclusive: 4.47 µM [activator, single point]"}
{"compound": "O=C1CC(c2ccccc2)CC(O)=C1C=Nc1ccc(O)cc1", "note": "(centres undefined)", "Potency": "inconclusive: 25.1 µM [inhibitor, single point]"}
{"compound": "Cc1ccc2[nH]c3c(=S)nc[nH]c3c2c1", "Potency": "inconclusive: 3.98 µM [activator, full curve, poor fit]"}
{"compound": "Cc1ccc(C(=O)Nc2ncnc3sc4c(c23)CCCCC4)cc1", "Potency": "inconclusive: 10.3 µM [inhibitor, partial curve, poor fit]"}
{"compound": "CC(C)CN1C(=O)c2ccc(C(=O)NCc3ccccn3)cc2C1=O", "activity change, negative = inhibition": "inactive: -26.4% [at 46.1 µM]"}
{"compound": "C/C(CCN1CCc2nc(-c3ccccc3)c(-c3ccccc3)cc2C1)=N\\O[C@H](C)CN1CCCCc2nc(C)c(C)cc21", "activity change, negative = inhibition": "inactive: 24.9% [at 14.2 µM]"}
{"compound": "Cc1ccc(C(C#N)c2ccc(C(=O)c3ccc(F)cc3)cc2)cc1", "note": "(centres undefined)", "Potency": "inconclusive: 17.8 µM [inhibitor, single point]"}
{"compound": "CCOc1ccc2nc(NC(=O)C3CCN(c4cnccn4)CC3)sc2c1", "Potency": "inconclusive: 5.8 µM [inhibitor, partial curve, poor fit]"}
{"compound": "Cc1c(Cl)cccc1NC(=O)Cn1c(CCC(=O)O)ccc1-c1cccs1", "activity change, negative = inhibition": "inactive: 5.59% [at 46.1 µM]"}
{"compound": "COc1ccccc1-n1cnc(N)c1C(=O)c1ccccc1", "Potency": "inconclusive: 2.24 µM [inhibitor, full curve]"}
{"compound": "COc1ccnc(N=CNOCc2ccc(C)cc2)c1C#N", "Potency": "inconclusive: 6.31 µM [activator, full curve, poor fit]"}
{"compound": "[O-][n+]1onc2c1CCc1c-2nn(-c2ccccc2Cl)[n+]1[O-]", "Potency": "inconclusive: 23.1 µM [inhibitor, single point]"}
{"compound": "COc1ccccc1OCC(=O)NCC(c1ccc(Cl)cc1)N1CCCCC1", "note": "(centres undefined)", "Potency": "inconclusive: 2.51 µM [inhibitor, full curve]"}
{"compound": "CCOc1ccc(-c2nnc(-c3cccs3)o2)cc1OCC", "activity change, negative = inhibition": "inactive: 6.24%"}
{"compound": "CC(=O)c1cccc(NC(=O)CSc2nc(C3CC3)nc3ccccc23)c1", "Potency": "inconclusive: 8.91 µM [inhibitor, partial curve, poor fit]"}
{"compound": "OC(CNC1CCCc2ccccc21)COc1ccc2ccccc2c1", "note": "(centres undefined)", "Potency": "inconclusive: 20.6 µM [inhibitor, single point]"}
{"compound": "CC(=O)c1cccc(NC(=O)c2sc(-n3nc(C)c(Cc4ccc5c(c4)OCO5)c3C)nc2C)c1", "Potency": "inconclusive: 3.55 µM [inhibitor, single point]"}
{"compound": "Cc1ccc2oc3c(c(=O)c2c1)C(c1ccc(F)cc1)N(Cc1ccc2c(c1)OCO2)C3=O", "note": "(centres undefined)", "Potency": "inconclusive: 3.98 µM [activator, full curve, poor fit]"}
{"compound": "CN(C)c1cccc(C(=O)NCCCn2ccc3ccccc32)c1", "Potency": "inconclusive: 35.5 µM [inhibitor, single point]"}
{"compound": "COc1ccc(NC(=O)c2cc(Cl)ccc2Cl)c([N+](=O)[O-])c1", "Potency": "inconclusive: 3.98 µM [activator, full curve, poor fit]"}
{"compound": "Cc1ccc(-n2cc(C(=O)c3ccccc3O)cn2)cc1", "Potency": "inconclusive: 0.891 µM [inhibitor, full curve, poor fit]"}
{"compound": "CCN(CC)c1nc2c(c(=O)n(C)c(=O)n2C)n1CC(=O)c1ccccc1", "Potency": "inconclusive: 31.6 µM [inhibitor, single point]"}
{"compound": "CSc1nc2ccc(NC(=O)c3nn(C(C)C)c(=O)c4ccccc34)cc2s1", "Potency": "inconclusive: 6.51 µM [inhibitor, single point]"}
{"compound": "COc1ccc(NC(=O)/C=C/C(=O)O)cc1Cl", "activity change, negative = inhibition": "inactive: 13%"}
{"compound": "O=C(NC(=S)Nc1cccc2cc(O)ccc12)c1ccccc1Br", "activity change, negative = inhibition": "inactive: -28.1%"}
{"compound": "CCN=c1scc(-c2ccc3c(c2)NC(=O)CO3)n1N=C1CCCC1", "Potency": "active: 3.98 µM"}
{"compound": "Cc1ccc(-c2cc3c(n2-c2ccc(C(=O)O)cc2)CCCC3=O)cc1", "Potency": "inconclusive: 22.4 µM [activator, partial curve, poor fit]"}
{"compound": "O=C(O)c1cccc(NC(=O)c2cc(NC(=O)c3ccccc3)cc(NC(=O)c3ccccc3)c2)c1", "activity change, negative = inhibition": "inactive: 7.99% [at 46.1 µM]"}
